# Drug screen on melanoma cell lines: cell count

Source: doi:10.1371/journal.pone.0140310, primary screening data, rounded.

First drug in all entries: etoposide, 0.02 µM, COc1cc([C@@H]2c3cc4c(cc3[C@@H](O[C@@H]3O[C@@H]5CO[C@@H](C)O[C@H]5[C@H](O)[C@H]3O)[C@H]3COC(=O)[C@H]23)OCO4)cc(OC)c1O

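Human melanoma cell lines in 1,536-well plates were treated with a pair of drugs for 72 h, then fixed, stained and imaged. Values are the number of DAPI-stained nuclei as a percentage of the DMSO control: 100 is no effect, lower means fewer cells. Concentrations were fixed for each drug; these are the lower of two levels, a fifth of the higher. The file gives one value for each pair and line, without errors, so small differences may be noise.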
An unselected part of the screen is shown.

| Partner | IPC-298 |
|---|---|
| O=C(CCCCCCC(=O)Nc1ccccc1)NO at 0.08 µM | 103 |
| O=C(O)c1ccc(-c2c[nH]c3ncc(-c4ccccc4)cc23)cc1C1CCCC1 at 0.16 µM | 90.0 |
| COc1cc2ncnc(Nc3ccc(Oc4ccccc4)cc3)c2cc1OC at 2 µM | 89.7 |
| Cc1ccc(Nc2nccc(N(C)c3ccc4c(C)n(C)nc4c3)n2)cc1S(N)(=O)=O at 0.4 µM | 82.0 |
| O=C(O)c1ccc2c(c1)nc(Nc1cccc(Cl)c1)c1ccncc12 at 0.4 µM | 85.3 |
| Cn1cncc1[C@@](N)(c1ccc(Cl)cc1)c1ccc2c(c1)c(-c1cccc(Cl)c1)cc(=O)n2C at 0.01 µM | 95.1 |
| Cn1cc(C2=C(c3cn(C4CCN(Cc5ccccn5)CC4)c4ccccc34)C(=O)NC2=O)c2ccccc21 at 0.8 µM | 97.8 |
| CC(=O)c1c(C)c2cnc(Nc3ccc(N4CCNCC4)cn3)nc2n(C2CCCC2)c1=O at 0.04 µM | 81.2 |
| C[C@@H](N)c1ccc(C(=O)Nc2ccnc3[nH]ccc23)cc1 at 0.4 µM | 88.4 |
| Cn1cc(/C=C2\C(=O)Nc3cccnc32)c2ccccc21 at 0.4 µM | 90.6 |
| COc1ccc2c(c1)CCC1C2CCC2(C)C(NCCCCCCN3C(=O)C=CC3=O)CCC12 (stereo unspecified) at 0.4 µM | 101 |
| O=C(/C=C/c1cccnc1)NCCCCC1CCN(C(=O)c2ccccc2)CC1 at 0.01 µM | 46.0 |
| COc1ccc(COc2ccc(Cc3cnc(N)nc3N)cc2OC)cc1 at 1 µM | 95.4 |
| O=S(=O)(c1ccccc1)N(CC(F)(F)F)c1ccc(C(O)(C(F)(F)F)C(F)(F)F)cc1 at 1.4 µM | 94.4 |
| CC(C)CCN1c2nc(Nc3cc(F)c(O)c(F)c3)ncc2N(C)C(=O)C1C (stereo unspecified) at 0.2 µM | 92.1 |
| CC1(C)NC(=O)N(c2ccc([N+](=O)[O-])c(C(F)(F)F)c2)C1=O at 1 µM | 94.7 |
| CC1(C)CCC(c2ccc(Cl)cc2)=C(CN2CCN(c3ccc(C(=O)NS(=O)(=O)c4ccc(N[C@H](CCN5CCOCC5)CSc5ccccc5)c(S(=O)(=O)C(F)(F)F)c4)cc3)CC2)C1 at 0.4 µM | 97.5 |
| C[C@@H]1CCN(C(=O)CC#N)C[C@@H]1N(C)c1ncnc2[nH]ccc12 at 1 µM | 104 |
| N.N.[Cl][Pt][Cl] at 1.6 µM | 89.6 |